Reference: publication PMC7906790

Sequences of proteins named here, by UniProt entry; tags and fusion partners are left off. A change or cut given only in a name is not applied to a line headed by its entry.
UniProt P23321: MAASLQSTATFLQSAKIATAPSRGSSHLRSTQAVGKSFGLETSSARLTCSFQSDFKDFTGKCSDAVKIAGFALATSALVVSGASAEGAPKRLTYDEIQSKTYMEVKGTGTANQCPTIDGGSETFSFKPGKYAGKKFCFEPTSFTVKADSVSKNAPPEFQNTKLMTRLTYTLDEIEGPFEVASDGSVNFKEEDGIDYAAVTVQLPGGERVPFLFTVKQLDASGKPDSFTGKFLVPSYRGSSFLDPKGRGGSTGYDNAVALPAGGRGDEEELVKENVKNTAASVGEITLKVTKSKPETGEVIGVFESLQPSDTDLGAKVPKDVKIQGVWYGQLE

Key:
[1] = target: T1, SecY1–YFP^C (Arabidopsis thaliana) (UniProt Q38885); test: split reporter; split YFP (nYFP/cYFP at the C-termini), transient co-expression in N. benthamiana leaf mesophyll chloroplasts, confocal microscopy 48 h after infiltration; also with 10 mM sodium azide or 30 uM geldanamycin
T1 sequence: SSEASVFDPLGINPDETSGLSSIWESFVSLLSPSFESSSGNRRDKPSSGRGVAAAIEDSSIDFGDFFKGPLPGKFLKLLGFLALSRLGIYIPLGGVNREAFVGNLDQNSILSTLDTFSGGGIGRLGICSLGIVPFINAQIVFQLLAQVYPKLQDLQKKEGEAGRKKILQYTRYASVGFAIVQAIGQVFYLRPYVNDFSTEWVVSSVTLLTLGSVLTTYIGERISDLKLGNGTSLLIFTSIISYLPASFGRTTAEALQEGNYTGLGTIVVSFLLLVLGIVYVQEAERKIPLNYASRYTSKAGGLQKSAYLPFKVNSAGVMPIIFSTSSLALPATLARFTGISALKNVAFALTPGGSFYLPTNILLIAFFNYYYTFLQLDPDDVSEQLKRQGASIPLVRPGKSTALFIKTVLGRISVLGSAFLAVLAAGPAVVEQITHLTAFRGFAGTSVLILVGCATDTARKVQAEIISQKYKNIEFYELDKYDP

[2] = target: T2, HSP90C–YFP^C (Arabidopsis thaliana) (UniProt Q9SIF2); test: as above
T2 sequence: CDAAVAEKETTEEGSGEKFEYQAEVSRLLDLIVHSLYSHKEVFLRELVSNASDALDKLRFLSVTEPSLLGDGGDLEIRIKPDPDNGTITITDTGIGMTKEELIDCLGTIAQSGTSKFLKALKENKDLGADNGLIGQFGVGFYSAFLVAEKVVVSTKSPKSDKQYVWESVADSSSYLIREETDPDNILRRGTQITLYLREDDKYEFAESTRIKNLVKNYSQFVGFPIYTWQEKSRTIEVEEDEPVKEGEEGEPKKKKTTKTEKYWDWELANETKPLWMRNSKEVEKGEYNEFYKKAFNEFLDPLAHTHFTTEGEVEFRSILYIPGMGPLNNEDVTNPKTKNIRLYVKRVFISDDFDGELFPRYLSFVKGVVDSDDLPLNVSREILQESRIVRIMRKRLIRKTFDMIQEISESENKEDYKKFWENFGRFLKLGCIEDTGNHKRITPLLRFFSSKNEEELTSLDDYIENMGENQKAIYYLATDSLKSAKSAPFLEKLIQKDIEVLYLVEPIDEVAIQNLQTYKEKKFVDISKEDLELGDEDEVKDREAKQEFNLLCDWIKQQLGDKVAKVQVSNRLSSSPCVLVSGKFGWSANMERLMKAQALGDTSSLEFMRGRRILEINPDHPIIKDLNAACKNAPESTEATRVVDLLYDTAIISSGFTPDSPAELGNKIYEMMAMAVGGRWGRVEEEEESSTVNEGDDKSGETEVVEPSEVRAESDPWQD

[3] = target: T3, SecY1–YFP^N (Myc tagged) (Arabidopsis thaliana) (UniProt Q38885); test: co-IP; intact tobacco chloroplasts after co-infiltration, solubilised with an equal volume of buffer with 2% digitonin (100 mM Tris-HCl pH 7.5, 300 mM NaCl); anti-Myc antibody and protein A-agarose hold Myc-tagged SecY1–nYFP; immunoblot; wild-type leaves as control
T3 sequence: T1 sequence

Row | binding [1] | binding [2] | binding [3] | Substance
1 | binds | binds | – | PsbO1–YFP^N (from UniProt P23321)
2 | – | – | binds | endogenous tobacco HSP90C (N. benthamiana (endogenous in leaves))

These are yes or no findings as the source states them, for the method shown. Binding seen in cells or lysates may run through a third protein. Binding can be weak; no strength is given. Sequences can lack the tags named with a protein.
